# Source: PubChem BioAssay AID651803 (National Center for Advancing Translational Sciences (NCATS), 2012)
# Amino acid sequences for entries named in this document (tags omitted). A change or cut given only in a name is not applied to a line headed by its entry.
# UniProt P11308: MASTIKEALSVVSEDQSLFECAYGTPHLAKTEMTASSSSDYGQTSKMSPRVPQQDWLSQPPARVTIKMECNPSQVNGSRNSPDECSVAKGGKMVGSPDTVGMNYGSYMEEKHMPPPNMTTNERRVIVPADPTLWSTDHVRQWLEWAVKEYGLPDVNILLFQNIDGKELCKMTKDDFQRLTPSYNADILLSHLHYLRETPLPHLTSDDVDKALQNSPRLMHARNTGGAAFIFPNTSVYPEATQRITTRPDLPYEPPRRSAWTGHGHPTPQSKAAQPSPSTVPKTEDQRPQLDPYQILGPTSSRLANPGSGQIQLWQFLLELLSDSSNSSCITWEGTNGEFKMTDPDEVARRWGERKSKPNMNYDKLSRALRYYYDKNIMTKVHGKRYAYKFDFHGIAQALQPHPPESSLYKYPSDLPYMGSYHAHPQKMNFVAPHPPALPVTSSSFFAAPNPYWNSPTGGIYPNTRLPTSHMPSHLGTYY
# Among all 1,200 compounds or so, fewer than 10 were called active. Inconclusive means that the source gave no clear call. Such entries were picked first, then a sample of the others. The call rests on the fitted dose curve; in most records, active means well fitted curve in the direction sought with a large enough effect; inconclusive means small, poorly fitted or top-dose-only effect, or another doubt; inactive means no such curve, though single readings can be large or run the other way. A potency beside an inconclusive call is a rough fit, not a confirmed value.
# Target: Transcriptional regulator ERG (Homo sapiens) (UniProt P11308)
# Assay: qHTS for Small Molecule Inhibitors of the ERG Ets/DNA interaction: TR assay against cherry picks
# Details: ERG Ets domain-DNA fluorescence polarization, Texas red probe; series mostly up to 154 µM
# Description: The Ets family of proteins is a family of ~30 conserved transcription factors defined by the presence of an ~85 amino acid domain referred to as the Ets domain, which mediates sequence-specific DNA binding to a core DNA element GGAA/T.The Ets family member ERG has been linked to several neoplasms. […] More extensive studies of the effects of over-expression of ERG in prostate cells have recently been carried out and have shown that over-expression of ERG results in increased invasion. […] We will carry out a high throughout screen to identify inhibitors of the interaction between ERG and DNA using a fluorescence polarization (FP) assay with a His-tagged ERG Ets domain and fluorescently-labeled DNA probes to develop small molecule inhibitors of this interaction as probes to test this hypothesis and lay the groundwork for the development of targeted therapies against ERG. This is the confirmation against the cherry picks in theprimary screening assay. NIH Molecular Libraries Probe Production Network [MLPCN] NIH Chemical Genomics Center [NCGC] Grant: NS066464 PI Name: John Bushweller, University of Virgina
# 1.5 ul of protein solution (1 uM ERG domain in 300mM KCl, 50mM Tris-HCl, 1mM EDTA, 1mM DTT, pH 7.5); 20 nl Control plate and compound library plate; 1.5 ul mixture of 5 nM Fluorescein-DNA and 100nM Texas-615-DNA solution in same buffer as above solution; measure fluorescence polarization sequentially for fluorescein (Excitation = 480 nm, Emission = 535s, 535p nm) and Texas red (Excitation = 555 nm, Emission = 632s, 632p nm).
row,SMILES,Potency
1,O=[N+]([O-])c1cc(Cl)cc(/C=N/NC(=S)Nc2cc(S(=O)(=O)N3CCOCC3)ccc2Cl)c1O,"inconclusive: 100 µM [inhibitor, single point]"
2,Cc1ccc(/C=C/C(=O)Nc2ccc(S(=O)(=O)Nc3onc(C)c3C)cc2)cc1,"inconclusive: 44.7 µM [inhibitor, partial curve]"
3,Cc1cc2[nH]c3c(c[n+](C)c4ccccc34)c2cc1C,"inconclusive: 25.1 µM [inhibitor, full curve]"
4,CN(C)CCN1C(=O)c2cccc3cc([N+](=O)[O-])cc(c23)C1=O,"inconclusive: 56.2 µM [inhibitor, partial curve, poor fit]"
5,Cc1cc(C(C)(C)CC(C)(C)C)ccc1OCCOCC[N+](C)(C)Cc1ccccc1,"inconclusive: 70.8 µM [inhibitor, partial curve]"
6,O=c1cc(-c2ccc(O)c(O)c2)oc2c1ccc1ccccc12,"inconclusive: 44.7 µM [inhibitor, partial curve, poor fit]"
7,Oc1c(Cl)cc(Oc2cc(Cl)c(O)c(CN3CCOCC3)c2)cc1CN1CCOCC1,inactive
8,CC(=O)N1CCN(c2ccc(Nc3ncnc4c3oc3ccccc34)cc2)CC1,"inconclusive: 56.2 µM [inhibitor, partial curve]"
9,Oc1ccc(N=Cc2ccc(-c3cccs3)s2)cc1,"inconclusive: 112 µM [inhibitor, single point]"
10,Nc1cc2[nH]c(=O)c3ccccc3c2cc1[N+](=O)[O-],"inconclusive: 25.1 µM [inhibitor, partial curve, poor fit]"
11,COc1ccc(CCCC(=O)Nc2cc(C)ccc2OC)cc1,inactive

# 2 compounds picked at random from those above, as already listed:
row,SMILES,Potency
5,Cc1cc(C(C)(C)CC(C)(C)C)ccc1OCCOCC[N+](C)(C)Cc1ccccc1,"inconclusive: 70.8 µM [inhibitor, partial curve]"
11,COc1ccc(CCCC(=O)Nc2cc(C)ccc2OC)cc1,inactive
